Test results from PubChem BioAssay AID1794844 (National Center for Advancing Translational Sciences (NCATS), 2023).
Among all 2,800 compounds or so, fewer than 10 were called active. Another 7% or so got no clear call; they are omitted. Calls follow the shape of the dose curve; as a rule, active = well fitted inhibition curve with a large enough effect; inconclusive = small, poorly fitted or top-dose-only effect; inactive = no such curve, though single readings can be large or run the other way. This is one part of the list.

Chains of the proteins cited; added tags and fusions are not shown. Lines headed by an entry give the natural chain unless they say otherwise; changes in a name come on top.
UniProt C7C422: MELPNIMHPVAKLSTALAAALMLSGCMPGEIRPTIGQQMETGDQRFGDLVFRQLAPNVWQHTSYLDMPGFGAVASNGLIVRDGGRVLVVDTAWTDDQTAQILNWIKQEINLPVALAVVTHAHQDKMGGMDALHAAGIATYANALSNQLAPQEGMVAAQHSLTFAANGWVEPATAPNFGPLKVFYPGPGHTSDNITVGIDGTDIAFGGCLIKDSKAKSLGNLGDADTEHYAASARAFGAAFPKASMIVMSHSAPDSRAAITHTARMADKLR

The compounds below were run against Metallo-beta-lactamase type 2 (Klebsiella pneumoniae) (UniProt C7C422) (assay: qHTS to identify inhibitors of the New Delhi Metallo-beta-lactamase (NDM): Nitrocefin screen against the machine-based learning selections.). Details: NDM-1 enzyme, nitrocefin hydrolysis, absorbance 485 nm; activity, negative = inhibition: at the top concentration.
How it was run: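 NDM-1 (2 nM final) in 50 mM HEPES pH 7.0, 1 uM Zn2SO4, 0.01% Tween20 was preincubated with compounds for >30 min. Nitrocefin (16.7 uM final) was read at 485 nm after 15 min, and meropenem (50 uM final) at 300 nm after 30 min.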
Also: % of control where 0% means no effect.

activity, negative = inhibition, inactive:
O=C(NC[C@H]1Cn2c(-c3ccccc3)cnc2CO1)C1CCOCC1 8.62% [at 57.5 µM]
O=C1N[C@@H]2CCN(S(=O)(=O)c3cccc(F)c3)[C@@H]2C(=O)N1c1ccc(F)cc1 -1.48% [at 57.5 µM]
O=C(COc1ccccc1)N1CCNc2cnc(Nc3cccc(F)c3)nc2C1 3.79% [at 57.5 µM]
C#CCNC(=O)[C@@H]1Cc2cn(Cc3cc(C)on3)c3cccc(c23)[C@H](CC(C)C)N1 0.317% [at 57.5 µM]
O=C(Nc1ccccc1)O[C@@H]1CO[C@H]2[C@@H]1OC[C@@H]2NC(=O)c1ccc(C(F)(F)F)cc1 -7.3%
CC(C)CNC(=O)c1ccnc(-c2nnc3ccc(Nc4ccccc4)nn23)c1 3.28% [at 57.5 µM]
CC(=O)Nc1ccc(C(O)[C@H]2COCC(=O)N2Cc2ccccc2F)cc1 (some centres undefined) 1.36% [at 57.5 µM]
Cc1ccc(C2(O)CCN(CC(c3ccccc3)c3ccccc3)CC2)nc1 47.5%
O=C(NC1CCCCC1)[C@H]1O[C@H](CCN2CCN(Cc3ccccc3)CC2)CC[C@@H]1O -3.05% [at 57.5 µM]
Cn1cccc1C(=O)N1CC[C@H](CO)[C@H](NC(=O)C2CC2)C1 2.72%
CN1[C@H](C(=O)O)C[C@H](C(=O)NCC(C)(C)CO)[C@@H]1c1cccc(F)c1F -13.8%
Cc1cc(C)n(Cc2cccc(C(=O)N3CCC4(CC3)[C@H](O)C[C@@H]4O)c2)n1 -0.0191%
CC1(C(=O)NCCCn2ccnc2)COCc2cnc(Nc3ccccc3)nc21 (centres undefined) 1.07% [at 57.5 µM]
COCc1ccc(C(=O)N[C@@H]2COCC[C@@H]2OCc2c(C)noc2C)o1 -0.0925%
COc1ccc(CN2CCNc3cnc(Nc4ccccc4)cc3C2)cn1 6.19% [at 57.5 µM]
O=C1NCCOCCN(C(=O)NCCc2ccccc2)[C@@H]2CCCC[C@H]12 16.9%
Cc1ccc(-c2ccc3nnc(CNC(=O)Cc4cccc(F)c4)n3n2)cc1 1.2%
CS(=O)(=O)NC1CCN(c2nc(-c3cccnc3)nc3c2CNC3)CC1 -10.4%
CNC(=O)c1cccc(-c2cnc(Nc3ccccc3)c3c2CCO3)c1 -9.22% [at 57.5 µM]
Cc1ccc(S(=O)(=O)N2CCCC(Cn3c(C)nc4cccnc43)C2)c(C)c1 (centres undefined) -2.96%
NC(=O)c1cccc(-c2ccc3c(n2)CN(Cc2ccc(F)cc2)C(=O)CO3)c1 6.52% [at 57.5 µM]
C[C@H]1[C@@H]2[C@@H](O)C([C@H](C)C(=O)N(C)CCC#N)CC[C@@]2(C)CC[C@@H]1NS(C)(=O)=O (some centres undefined) -7.25% [at 57.5 µM]
Oc1ccccc1CN1CCNc2cc(-c3ccccc3)ncc2C1 13.3% [at 57.5 µM]
Cc1cc(C)c(CNC(=O)c2nc(-c3ccccc3)cc3[nH]ccc23)c(=O)[nH]1 46.5% [at 57.5 µM]
COc1cc(C(=O)N2C[C@@H](C)[C@@](C)(O)C2)ccn1 7.5%
COCC(=O)N1CC[C@@H](CC(=O)O)[C@@H](CC2=NCCc3cc(OC)ccc32)C1 -8.79% [at 57.5 µM]
O=C(CCc1cccnc1)N1CCCC(CCc2cccc(F)c2)C1 (centres undefined) -11.5%
NC(=O)CN1CCC(c2nc(-c3ccc4nc[nH]c4c3)no2)CC1 -1.91%
O=C(NCc1cccc(Cl)c1)c1cc2c(s1)CCN(C(=O)c1ccccc1)C2 -5.13%
Cc1ccsc1[C@@H]1CCN(Cc2cccn2-c2cccnc2)C[C@H]1O -2.87%
CCOC(=O)C1=C(C)N=C2SC=C(CC(=O)N3CCCCC3)N2C1c1cccc(OC)c1 (centres undefined) -9.57%
CC(C)C[C@@H](NC(=O)C1=C[C@@H](NC(=O)c2ccco2)[C@@H](O)[C@H](O)C1)C(N)=O 13.3% [at 57.5 µM]
CC(C)NC(=O)[C@@H]1C[C@H](N)CN1C(=O)c1ccc(-n2cnnn2)cc1 11.7%
COc1ccc(S(=O)(=O)N2C[C@@H](F)[C@@H](OCc3nc4ccccc4o3)C2)cc1 -4.04% [at 57.5 µM]
N#Cc1cccc(NC(=O)O[C@@H]2CO[C@H]3[C@@H]2OC[C@@H]3n2nnnc2-c2ccc(-c3ccccc3)cc2)c1 -3.25%
COc1ccc(-c2noc([C@@H]3Cc4nc[nH]c4CN3Cc3ccc(NC(C)=O)cc3)n2)cc1 -3.71%
N#Cc1cccc(C(=O)Nc2ccc([C@H]3OCC(=O)N(C4CCOCC4)[C@@H]3CO)cc2)c1 2.18%
Oc1ccccc1CN1CCNc2cc(Nc3cccnc3)ncc2C1 4.53% [at 57.5 µM]
COc1ccccc1-c1ccc2ncc(Nc3cccc(O)c3)n2n1 -12.3% [at 57.5 µM]
O=C(Cc1cccc(F)c1)NCc1nnc2ccc(-c3ccc(Cl)cc3)nn12 -3.28%
CC(C)NC(=O)N[C@H]1CCN2C(=O)c3cc(-c4ccccc4)ccc3NC(=O)[C@H]12 -11.1% [at 57.5 µM]
CCO[C@H]1CN(C(=O)CCCc2nc(-c3ccccc3OC)no2)C[C@@H]1O 0.258%
O=C(NC1CCN(c2cc(-c3cccs3)[nH]n2)C1)c1cccc(OC(F)(F)F)c1 (centres undefined) 10.1%
CCc1ncc(C(=O)N2CCN(c3ccc(Cl)c(Cl)c3)CC2)cn1 -4.54%
COc1ccc(S(=O)(=O)N2CC[C@H](NC(=O)c3ccncc3)C[C@H]2C(=O)N[C@@H](CC2CCCCC2)C(N)=O)cc1 9.28%
O=C(O)[C@H]1C[C@H](C(=O)NCc2ccccn2)CN(C(=O)CC2CCCC2)C1 -15.3%
CCc1nc2c(c(-c3ccc(Cl)cc3)n1)CCN(Cc1ccc(C#N)cc1)CC2 57%
Cc1cccc(O[C@H]2COCCN(C(=O)c3ccc(C(F)(F)F)cc3)C2)n1 -2.73% [at 57.5 µM]
Cc1ncsc1C1N(C2CCN(Cc3cn(C)c4ccccc34)CC2)C(=O)C12CCCC2 (centres undefined) 4.73%
Cc1cn(CC(=O)NC2CCOC3(CCOCC3)C2)c(=O)[nH]c1=O (centres undefined) -17.7%
Cc1cc(OCCN2CCOCC2)c(C)c2c1CC[C@@H]([C@H](C)C(=O)NC(C)(C)C)C2 -1.3% [at 57.5 µM]
Cc1cc(C[C@@H]2COC[C@@H]2NC(=O)CCCn2cnc3ccccc3c2=O)on1 0.692%
Cc1cc(S(=O)(=O)NCC2CCOCC2)ccc1F 3.46%
O=C(CCc1ccc2c(c1)OCO2)N[C@H](c1cccs1)C1CC(O)C1 (some centres undefined) 4.14%
CC1=C[C@@H](CO)[C@H](C(C)C)C[C@H]1Cc1nnc(-c2ccc(N(C)C)cc2)o1 -0.177% [at 57.5 µM]
C[S+](=O)([O-])c1cccc(NC(=O)Cc2c[nH]c3ncc(-c4cccnc4)cc23)c1 2.15% [at 57.5 µM]
Cc1cccc2c1nc1n2[C@@H](CNC2CCCCC2)COC1 -5.68% [at 57.5 µM]
O=C(COc1ccccc1)N1CCOC[C@H](Oc2ccccc2)C1 -5.52% [at 57.5 µM]
CCc1cc(=O)n(CC(=O)Nc2ccc(C(C)C)cc2)c(N2CCOCC2)n1 4.41%
O=C(c1ccc(Oc2ccccc2)cc1)N1CCNc2cnc(Nc3cccnc3)nc2C1 0.502%
O=C(NC(C(=O)N1CCCCC1)C1CCN(C(=O)CCc2ccccc2)CC1)c1cccs1 (centres undefined) -6.05%
c1cncc(CN2CC[C@H](c3nc4ccccc4[nH]3)C2)c1 -0.866% [at 76.7 µM]
c1ccc(-c2[nH]nc3ncc(-c4cn[nH]c4)nc23)cc1 5.46% [at 76.7 µM]
Cc1ccc2nc([C@H]3CCN(C4CCC4)C3)[nH]c2c1 7.28% [at 76.7 µM]
c1cc(-c2n[nH]c(CNC3CCC4(CCNCC4)CC3)n2)ccn1 -24.3%
O=C(Nc1ccccc1)c1ccc(-c2cccc3c2CCNC3)o1 -3.33%
O=C1Nc2ccc(-c3ccc4c(c3)OCO4)cc2C(=O)N2CCN(C(=O)C3CCCC3)C[C@@H]12 1.59%
COc1ccc2[nH]c3c(c2c1)CCN(C)C31CCN(C(=O)c2ccc3ncccc3c2)CC1 3.35%
CC(=O)N1CCN([C@H]2[C@@H]3OC[C@@H](O3)[C@@H](NCc3cnc4ccccc4c3)[C@@H]2O)CC1 1.2% [at 57.5 µM]
O=C(NC[C@H]1O[C@H](Cc2cc(-c3ccc(F)cc3)on2)CC[C@@H]1O)c1ccncc1 -8.95% [at 57.5 µM]
O=C(C[C@@H]1CCNC[C@@H]1Cc1cc(CC2CCCCC2)on1)NCc1ccco1 -7.6% [at 57.5 µM]
Cc1noc2c(-c3cccnc3)cc(-c3cccs3)nc12 -1.29% [at 57.5 µM]
O=C(NCCc1cnc[nH]1)c1nc(-c2ccccc2)cc2[nH]ccc12 -8.19% [at 57.5 µM]
Cc1ccccc1-c1cnc2[nH]cc(CC(=O)NC3CC3)c2c1 5.23% [at 57.5 µM]
CCN(CC)C(=O)[C@@H]1CCC[C@@H](NC(=O)c2cncnc2)CN(C)C(=O)C1 -10.9% [at 57.5 µM]
O=C(NCCc1ccccn1)c1nc(-c2ccccc2)cc2[nH]ccc12 -3.53% [at 57.5 µM]
NCCN1C(=O)CC[C@H]2CN(C(=O)C3(c4ccccc4)CC3)CC[C@H]21 -19.8%
COc1ccc(CNC(=O)CC[C@H]2CNC(=O)[C@@H]3[C@@H](CCN3C(C)C)N2C)cc1 5.66% [at 57.5 µM]
CN(C)c1cccc(-c2cnc(Nc3cccc(N[S+](C)(=O)[O-])c3)c3c2CCO3)c1 -8.1% [at 57.5 µM]
CN1C[C@H](NCc2nccn2C)CCC[C@@H](C(=O)NCc2cc(F)cc(F)c2)CC1=O -6.36% [at 57.5 µM]
CC(C)(O)C#Cc1ccc(CN2CCC(CO)(CCCc3ccccc3)CC2)s1 -4.2%
Cn1c(CN2CCOCC2)nnc1C1CCCN(C(=O)CNC(N)=O)C1 (centres undefined) 4.77%
Oc1ccccc1CN1CCOC[C@H]1c1ncc(-c2cccc(Cl)c2)[nH]1 -3.86% [at 57.5 µM]
CN(C)c1cccc(NC(=O)Cc2c[nH]c3ncc(-c4ccccc4)cc23)c1 0.958% [at 57.5 µM]
CCNC(=O)[C@@H]1C[C@@H](NC(=O)c2csc(C)c2CC)CN1C1CCCC1 -2.27%
Cc1ccc(CN2C(=O)[C@@H]3C[C@@H](O)CN3C3(CN(Cc4ccncc4)C3)C2=O)o1 -5.19% [at 57.5 µM]
COc1ccc(-c2nc3c(c(-c4ccccc4)n2)CN(C(=O)c2cccc(Cl)c2)CC3)cc1 3.85%
Cc1nccnc1CN1CCC2(CC1)CCN(Cc1ncc[nH]1)CC2CO (centres undefined) -0.514%
Cn1c([C@H]2CCN(C(=O)COc3ccccc3)C2)nc2ccccc21 0.473% [at 57.5 µM]
O=C(Cc1c[nH]c2ncc(-c3ccccc3C(F)(F)F)cc12)NCc1cccnc1 6.71% [at 57.5 µM]
Cc1ccc2nc(C3CCCN(Cc4ccc(-c5cncnc5)cc4)C3)[nH]c(=O)c2c1 (centres undefined) 2%
COc1ccc(C2Cn3cnc(C(=O)N4CCC(C(=O)Nc5ccc(C)cc5C)CC4)c3CO2)cc1 (centres undefined) -4.23%
O[C@@H]1CC(CNCc2cccc(Cl)c2)(COc2ccccc2)C[C@@H]1O (some centres undefined) -2.73% [at 57.5 µM]
CC1=C[C@@H](CN2CCN(c3ccccn3)CC2)[C@H](C(C)C)C[C@H]1Cc1nnc(-c2ccccc2)o1 2.88%

Quoted from the listing for reference:
activity, negative = inhibition, inactive:
CCc1cc(=O)n(CC(=O)Nc2ccc(C(C)C)cc2)c(N2CCOCC2)n1 4.41%
O=C(c1ccc(Oc2ccccc2)cc1)N1CCNc2cnc(Nc3cccnc3)nc2C1 0.502%
O=C(NC(C(=O)N1CCCCC1)C1CCN(C(=O)CCc2ccccc2)CC1)c1cccs1 (centres undefined) -6.05%
c1cncc(CN2CC[C@H](c3nc4ccccc4[nH]3)C2)c1 -0.866% [at 76.7 µM]
c1ccc(-c2[nH]nc3ncc(-c4cn[nH]c4)nc23)cc1 5.46% [at 76.7 µM]
Cc1ccc2nc([C@H]3CCN(C4CCC4)C3)[nH]c2c1 7.28% [at 76.7 µM]
c1cc(-c2n[nH]c(CNC3CCC4(CCNCC4)CC3)n2)ccn1 -24.3%
O=C(Nc1ccccc1)c1ccc(-c2cccc3c2CCNC3)o1 -3.33%
O=C1Nc2ccc(-c3ccc4c(c3)OCO4)cc2C(=O)N2CCN(C(=O)C3CCCC3)C[C@@H]12 1.59%
COc1ccc2[nH]c3c(c2c1)CCN(C)C31CCN(C(=O)c2ccc3ncccc3c2)CC1 3.35%
CC(=O)N1CCN([C@H]2[C@@H]3OC[C@@H](O3)[C@@H](NCc3cnc4ccccc4c3)[C@@H]2O)CC1 1.2% [at 57.5 µM]
O=C(NC[C@H]1O[C@H](Cc2cc(-c3ccc(F)cc3)on2)CC[C@@H]1O)c1ccncc1 -8.95% [at 57.5 µM]
O=C(C[C@@H]1CCNC[C@@H]1Cc1cc(CC2CCCCC2)on1)NCc1ccco1 -7.6% [at 57.5 µM]
Cc1noc2c(-c3cccnc3)cc(-c3cccs3)nc12 -1.29% [at 57.5 µM]
O=C(NCCc1cnc[nH]1)c1nc(-c2ccccc2)cc2[nH]ccc12 -8.19% [at 57.5 µM]
Cc1ccccc1-c1cnc2[nH]cc(CC(=O)NC3CC3)c2c1 5.23% [at 57.5 µM]
CCN(CC)C(=O)[C@@H]1CCC[C@@H](NC(=O)c2cncnc2)CN(C)C(=O)C1 -10.9% [at 57.5 µM]
O=C(NCCc1ccccn1)c1nc(-c2ccccc2)cc2[nH]ccc12 -3.53% [at 57.5 µM]
NCCN1C(=O)CC[C@H]2CN(C(=O)C3(c4ccccc4)CC3)CC[C@H]21 -19.8%
